This note sets out measurements from US6843854B2, “Method and apparatus for separating a component from a mixture” (Purdue Research Foundation, priority 2002, dated 2005).

The structures appear in SMILES notation.

The series in a line: Five zone SMB separation experiments, purity and yield at Raffinate.
Setting [1] is: Five Zone SMB Experiment #7, cycles 1-223.
Setting [2] is: Five Zone SMB Experiment #7, cycles 224-242.
[3] abbreviates: Five Zone SMB Experiment #7, cycles 243-252.
The mark [4] stands for this setting: Five Zone SMB Experiment #7, cycles 253-273.
The mark [5] stands for this setting: Five Zone SMB Experiment #7, cycles 274-312.
Where [6] appears, read: Five Zone SMB Experiment #7, cycles 313-333.

As for `CC[C@H]1OC(=O)[C@H](C)[C@@H](O[C@H]2C[C@@](C)(OC)[C@@H](O)[C@H](C)O2)[C@H](C)[C@@H](O[C@@H]2O[C@H](C)C[C@H](N(C)C)[C@H]2O)[C@](C)(OC)C[C@@H](C)C(=O)[C@H](C)[C@@H](O)[C@]1(C)O` [Clarithromycin, 6-O-methyl erythromycin A], the “Avg. Clarithromycin Purity at Raffinate” value under setting [1] came to 99.9%; the “Avg. Clarithromycin Purity at Raffinate” value under setting [2] was 99.9%; the “Avg. Clarithromycin Purity at Raffinate” value under setting [3] was 99.9%; the “Avg. Clarithromycin Purity at Raffinate” value under setting [4] was 99.9%; the “Avg. Clarithromycin Purity at Raffinate” value under setting [5] was 99.9%; the “Avg. Clarithromycin Purity at Raffinate” value under setting [6] is recorded as 99.9%. The “Avg. Clarithromycin Yield at Raffinate” value under setting [1] is on record as 75.7%; the “Avg. Clarithromycin Yield at Raffinate” value under setting [2] is reported as 74.9%; the “Avg. Clarithromycin Yield at Raffinate” value under setting [3] is 80.0%; the “Avg. Clarithromycin Yield at Raffinate” value under setting [4] is 86.1%; the “Avg. Clarithromycin Yield at Raffinate” value under setting [5] worked out at 87.8%; the “Avg. Clarithromycin Yield at Raffinate” value under setting [6] turned out to be 91.2%. Moreover, the “Avg. Raffinate Clarithromycin Concentration” value was 0.376 g/L under setting [1]; 0.419 g/L under setting [2]; 0.410 g/L under setting [3]; 0.451 g/L under setting [4]; 0.430 g/L under setting [5]; 0.445 g/L under setting [6].
